Measurements as given in PMC9174161.
These are yes or no findings as the source states them, for the method shown. Binding seen in cells or lysates may run through a third protein. These calls come from enrichment with a bait or labelling near it, and not all partners need be listed.

Sequences of proteins named here, by UniProt entry; tags and fusion partners are left off.
UniProt Q06710: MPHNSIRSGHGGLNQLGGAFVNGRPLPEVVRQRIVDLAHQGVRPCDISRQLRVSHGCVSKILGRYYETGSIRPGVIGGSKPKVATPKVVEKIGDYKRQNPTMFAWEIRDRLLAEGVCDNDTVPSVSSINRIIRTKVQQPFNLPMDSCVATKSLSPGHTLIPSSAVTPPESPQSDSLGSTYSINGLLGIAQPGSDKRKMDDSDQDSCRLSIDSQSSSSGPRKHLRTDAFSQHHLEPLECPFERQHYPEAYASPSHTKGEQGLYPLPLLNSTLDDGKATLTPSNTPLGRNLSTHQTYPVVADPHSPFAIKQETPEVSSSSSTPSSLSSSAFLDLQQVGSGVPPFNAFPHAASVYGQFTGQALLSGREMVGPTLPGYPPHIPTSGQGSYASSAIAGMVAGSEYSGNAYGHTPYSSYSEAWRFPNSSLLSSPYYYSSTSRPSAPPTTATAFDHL
UniProt Q92841: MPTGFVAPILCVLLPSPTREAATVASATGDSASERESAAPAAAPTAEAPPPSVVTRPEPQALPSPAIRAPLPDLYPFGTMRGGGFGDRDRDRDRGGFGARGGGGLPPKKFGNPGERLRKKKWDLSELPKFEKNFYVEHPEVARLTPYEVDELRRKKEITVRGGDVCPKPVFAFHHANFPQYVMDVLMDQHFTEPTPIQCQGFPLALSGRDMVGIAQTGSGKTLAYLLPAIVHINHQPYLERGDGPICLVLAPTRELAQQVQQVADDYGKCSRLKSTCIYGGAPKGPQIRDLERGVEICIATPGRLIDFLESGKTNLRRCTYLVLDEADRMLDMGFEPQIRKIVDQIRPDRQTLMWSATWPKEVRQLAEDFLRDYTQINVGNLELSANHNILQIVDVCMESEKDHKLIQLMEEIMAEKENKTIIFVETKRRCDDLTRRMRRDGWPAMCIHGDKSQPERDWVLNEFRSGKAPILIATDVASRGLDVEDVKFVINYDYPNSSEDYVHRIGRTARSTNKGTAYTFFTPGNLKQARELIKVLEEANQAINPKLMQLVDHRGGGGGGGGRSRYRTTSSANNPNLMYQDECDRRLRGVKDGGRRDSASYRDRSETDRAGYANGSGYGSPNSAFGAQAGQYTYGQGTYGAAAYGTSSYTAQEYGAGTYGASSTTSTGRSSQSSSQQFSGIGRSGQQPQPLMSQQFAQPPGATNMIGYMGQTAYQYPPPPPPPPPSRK
UniProt P17844: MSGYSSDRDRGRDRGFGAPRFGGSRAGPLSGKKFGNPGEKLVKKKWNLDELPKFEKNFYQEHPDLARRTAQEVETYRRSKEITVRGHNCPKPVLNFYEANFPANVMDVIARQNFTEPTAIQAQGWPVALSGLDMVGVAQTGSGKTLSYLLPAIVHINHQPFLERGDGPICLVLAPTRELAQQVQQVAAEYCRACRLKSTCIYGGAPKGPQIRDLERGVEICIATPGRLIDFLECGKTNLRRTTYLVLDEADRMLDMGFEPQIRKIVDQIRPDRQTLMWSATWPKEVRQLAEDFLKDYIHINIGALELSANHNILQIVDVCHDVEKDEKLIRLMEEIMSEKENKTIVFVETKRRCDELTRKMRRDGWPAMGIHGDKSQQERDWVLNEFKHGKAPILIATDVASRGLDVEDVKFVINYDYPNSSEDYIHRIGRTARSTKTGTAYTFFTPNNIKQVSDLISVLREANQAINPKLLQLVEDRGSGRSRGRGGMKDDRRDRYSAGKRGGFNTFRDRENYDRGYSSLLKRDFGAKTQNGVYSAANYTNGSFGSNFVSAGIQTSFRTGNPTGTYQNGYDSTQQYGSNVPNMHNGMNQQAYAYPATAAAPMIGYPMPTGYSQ
UniProt O00571: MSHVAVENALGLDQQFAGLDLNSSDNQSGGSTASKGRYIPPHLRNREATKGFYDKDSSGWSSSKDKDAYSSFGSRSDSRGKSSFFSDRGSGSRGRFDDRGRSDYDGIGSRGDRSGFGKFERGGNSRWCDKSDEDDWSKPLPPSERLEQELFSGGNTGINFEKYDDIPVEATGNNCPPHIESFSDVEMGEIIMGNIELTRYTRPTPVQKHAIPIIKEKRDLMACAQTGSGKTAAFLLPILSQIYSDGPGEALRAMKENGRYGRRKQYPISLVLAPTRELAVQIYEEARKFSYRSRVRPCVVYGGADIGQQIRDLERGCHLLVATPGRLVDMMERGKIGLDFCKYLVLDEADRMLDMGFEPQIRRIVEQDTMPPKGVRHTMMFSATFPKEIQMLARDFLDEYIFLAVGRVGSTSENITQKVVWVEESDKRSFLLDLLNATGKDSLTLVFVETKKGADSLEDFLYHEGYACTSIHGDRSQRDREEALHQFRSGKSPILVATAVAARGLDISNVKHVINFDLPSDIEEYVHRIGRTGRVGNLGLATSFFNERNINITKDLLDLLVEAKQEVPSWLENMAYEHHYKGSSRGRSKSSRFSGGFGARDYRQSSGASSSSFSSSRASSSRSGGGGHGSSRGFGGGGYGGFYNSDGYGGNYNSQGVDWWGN

target: HA-tagged PAX8 (Paired box 8) (UniProt Q06710); assay: affinity purification with mass spectrometry; HA-PAX8 overexpressed in HEK293T cells, immunoprecipitated with anti-HA antibody; IgG control; in-gel tryptic digestion, LC-MS/MS (the legend of Fig. 5A says Ishikawa cells and anti-PAX8 antibody)

Molecule | binding
DDX17 (from UniProt Q92841 1-729) | binds
DDX5 (from UniProt P17844 1-614) | binds

Now from value to molecule:

binding | Molecule
binds | DDX3X (from UniProt O00571 1-662)
binds | FBL (protein, UniProt P22087 1-321) MKPGFSPRGGGFGGRGGFGDRGGRGGRGGFGGGRGRGGGFRGRGRGGGGGGGGGGGGGRGGGGFHSGGNRGRGRGGKRGNQSGKNVMVEPHRHEGVFICRGKEDALVTKNLVPGESVYGEKRVSISEGDDKIEYRAWNPFRSKLAAAILGGVDQIHIKPGAKVLYLGAASGTTVSHVSDIVGPDGLVYAVEFSHRSGRDLINLAKKRTNIIPVIEDARHPHKYRMLIAMVDVIFADVAQPDQTRIVALNAHTFLRNGGHFVISIKANCIDSTASAEAVFASEVKKMQQENMKPQEQLTLEPYERDHAVVVGVYRPPPKVKN
